PubChem BioAssay AID2685 (National Center for Advancing Translational Sciences (NCATS), 2010)
This is one part of the list. The main result of the screen is listed elsewhere. These columns were measured beside it and carry no call. Compounds called inactive in the main read-out are mostly missing here. Potencies come from curve fits of mixed quality, noted in brackets.

Experiment: qHTS Assay for Lipid Storage Modulators in Drosophila S3 Cells;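 for cell number change: cells counted by Cell Tracker Red CMTPX staining in the red channel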
Details: BODIPY lipid droplet fluorescence, 18-24 h; for cell number change: measured here: cell count max response, cells fed with added oleic acid
Method in brief: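 Drosophila S3 cells loaded with oleic acid (400 uM, as added) and compounds at several concentrations; lipid droplets imaged by 488-nm laser-scanning cytometry, 500–530 nm intensity and object ratio to cell channel. Percent activity normalized to 20 uM Triacsin C.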

[1] = measured here: lipid fluorescence (Fed channel) AC50, cells fed with added oleic acid
[2] = measured here: cell number channel AC50, cells fed with added oleic acid

| SMILES | cell number change [%] | AC50 [1] | AC50 [2] |
| --- | --- | --- | --- |
| COc1ccc(NC(=O)Cn2c(C)csc2=O)c(OC)c1 | 3.16 | 14.6 µM [rising, partial curve] |  |
| COc1ccc(N2CCN(c3ccc(N4C(=O)CC(C)C4=O)cc3[N+](=O)[O-])CC2)cc1 (stereo not drawn) | -16.3 | 29.1 µM [falling, single point] | 0.517 µM [rising, full curve, poor fit] |
| Cc1ccc2c(CN(C)Cc3cccc(F)c3)cc(=O)oc2c1C | 25.7 | 2.31 µM [rising, single point] |  |
| O=C(OCc1nc2ccsc2c(=O)[nH]1)c1ccco1 |  | 0.13 µM [falling, partial curve, poor fit] | 0.13 µM [falling, full curve, poor fit] |
| Cn1c(=NC(=O)COc2ccccc2)sc2cccc(F)c21 | 20.3 | 1.64 µM [rising, full curve] |  |
| CCOc1ccccc1Nc1ncnc2ccc(Br)cc12 | -2.36 |  |  |
| COC(=O)[C@H](C)NC(=O)Nc1ccc(OC)c(OC)c1 | 11.3 | 20.6 µM [falling, single point] |  |
| O=C(N/N=C/c1cn(Cc2cccc(F)c2)c2ccccc12)c1cc(O)cc(O)c1 | -37.6 |  | 29.1 µM [falling, single point] |
| CCOC(=O)N1CCC(N2Cc3cccc(C(=O)NCc4ccc(OC)cc4)c3C2=O)CC1 | 34 | 10.3 µM [rising, partial curve] | 10.3 µM [rising, partial curve] |
| C=CCn1c(SCc2c(C)noc2C)nc2ccccc2c1=O | 49.2 | 0.58 µM [rising, single point] | 1.84 µM [rising, partial curve] |
| Cc1cccc(NC(=O)[C@H](C)NC(=O)[C@@H]2Cc3ccccc3CN2C(=O)OC(C)(C)C)c1 | 2.64 | 23.1 µM [falling, partial curve] |  |
| CCCCN(C)C(=O)c1cn(CC)c2ccc(S(=O)(=O)N(C)C)cc2c1=O | -31 |  | 8.2 µM [falling, partial curve] |
| CCOC(=O)Cn1ccc(NC(=O)c2ccc(F)cc2)n1 | 10.8 | 6.51 µM [rising, single point] | 3.66 µM [rising, partial curve, poor fit] |
| O=C(CCN1C(=O)/C(=C/c2ccccc2)SC1=S)N1CCCCCC1 | 3.95 |  |  |
| Cc1ccc(S(=O)(=O)NC2CC(C)(C)NC(C)(C)C2)cc1C | 25.6 | 29.1 µM [rising, single point] |  |
| CC1(C)C(=O)Nc2ccccc2N1C(=O)COC(=O)c1cc(S(C)(=O)=O)ccc1Cl | -10.5 | 0.58 µM [rising, single point] |  |
| O=C(Nc1ccc(Cn2cccn2)cc1)c1ccc(COc2ccccc2Br)cc1 | -12.8 | 1.84 µM [falling, partial curve] |  |
| O=c1nc(N/N=C/c2c[nH]c3ccccc23)cn[nH]1 | -48.4 | 0.116 µM [falling, full curve] | 4.61 µM [falling, full curve, poor fit] |
| COc1ccc(Nc2nc(-c3ccccc3)nc3ccccc23)c(OC)c1 | 62.8 | 0.116 µM [rising, full curve, poor fit] | 29.1 µM [rising, single point] |
| O=C(CSc1nnc(CNC(=O)C23CC4CC(CC(C4)C2)C3)n1-c1ccc(F)cc1)Nc1ccc(F)cc1 | -31.3 | 29.1 µM [falling, single point] | 20.6 µM [falling, single point] |
| O=C(Nc1ccc(C(=O)N2CCN(c3ccc(Cl)cc3)CC2)cc1)C1=CSCCO1 | 63.7 | 5.8 µM [rising, single point] | 8.2 µM [rising, partial curve] |
| CN(C)S(=O)(=O)c1ccc(C(=O)NCCN2C(=O)S/C(=C\c3cccnc3)C2=O)cc1 | -7.38 |  |  |
| COc1ccc(NC(=O)CSc2nnnn2-c2ccccc2OC)c(OC)c1 | -7.21 | 0.116 µM [falling, full curve, poor fit] |  |
| COc1ccc(S(=O)(=O)CCC(=O)NCCc2ccc(S(N)(=O)=O)cc2)cc1 | -6.69 | 20.6 µM [falling, single point] |  |
| CC(C)c1ccc(C(O)Cc2nc3ccccc3n2C)cc1 (stereo not drawn) | 13.8 | 0.291 µM [rising, full curve, poor fit] |  |
| c1ccc(CSc2nnc(-c3ccccn3)n2-c2ccccc2)cc1 | 50.6 |  | 23.1 µM [rising, single point] |
| Cc1ccc2c(c1)N(S(=O)(=O)c1ccc(CN3C(=O)c4cccnc4C3=O)cc1)CCO2 |  | 29.1 µM [rising, single point] |  |

2 records picked at random from the list so far, as already listed:

| SMILES | cell number change [%] | AC50 [1] | AC50 [2] |
| --- | --- | --- | --- |
| COC(=O)[C@H](C)NC(=O)Nc1ccc(OC)c(OC)c1 | 11.3 | 20.6 µM [falling, single point] |  |
| COc1ccc(Nc2nc(-c3ccccc3)nc3ccccc23)c(OC)c1 | 62.8 | 0.116 µM [rising, full curve, poor fit] | 29.1 µM [rising, single point] |
